Data as given in PubChem BioAssay AID493246 (Drosophila RNAi Screening Center, 2011).
Test: 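Genes fly cells need to grow and stay alive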 (primary screen). Cells: Drosophila Kc and S2R+ cells. Reagent: long dsRNA against Drosophila genes. Read-out: 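Cell number per well after knock-down, printed as raw plate values; calls were based on per-plate z-scores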. Direction: Kc cell number and S2R+ cell number: higher = more cells remaining. Call rule: 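Counted as a hit if cell number falls by a z-score of at least 3 within its plate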.
In all, the deposit lists about 21,000 reagents; below is an unselected part of those that have a named target and a result. Over the whole deposit, 429 (2%) are marked active. 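Values are raw and not normalised between plates; calls rest on per-plate z-scores that were not deposited.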 Unmarked entries are inactive. The record does not give: the amount of reagent, the time to read-out.

{"target": "MICU1 (Mitochondrial calcium uptake 1)", "dsRNA": "DRSC02752", "Kc cell number, rep 1": 1.21e6, "Kc cell number, rep 2": 1.33e6, "S2R+ cell number, rep 1": 5.76e5, "S2R+ cell number, rep 2": 5.94e5}
{"target": "nAChRalpha4 (nicotinic Acetylcholine Receptor alpha4)", "dsRNA": "DRSC11925", "Kc cell number, rep 1": 1.49e6, "Kc cell number, rep 2": 1.50e6, "S2R+ cell number, rep 1": 1.07e6, "S2R+ cell number, rep 2": 1.29e6}
{"target": "AspRS-m (Aspartyl-tRNA synthetase, mitochondrial)", "dsRNA": "DRSC02646", "Kc cell number, rep 1": 1.56e6, "Kc cell number, rep 2": 1.60e6, "S2R+ cell number, rep 1": 1.24e6, "S2R+ cell number, rep 2": 1.38e6}
{"target": "mtsh (mitoshell)", "dsRNA": "DRSC03070", "Kc cell number, rep 1": 1.57e6, "Kc cell number, rep 2": 1.72e6, "S2R+ cell number, rep 1": 1.29e6, "S2R+ cell number, rep 2": 1.46e6}
{"target": "ClC-c (Chloride channel-c)", "dsRNA": "DRSC10499", "Kc cell number, rep 1": 1.51e6, "Kc cell number, rep 2": 1.59e6, "S2R+ cell number, rep 1": 1.31e6, "S2R+ cell number, rep 2": 1.38e6}
{"target": "CG31100", "dsRNA": "DRSC14453", "Kc cell number, rep 1": 1.49e6, "Kc cell number, rep 2": 1.53e6, "S2R+ cell number, rep 1": 1.40e6, "S2R+ cell number, rep 2": 1.47e6}
{"target": "CG31100", "dsRNA": "DRSC14455", "Kc cell number, rep 1": 1.56e6, "Kc cell number, rep 2": 1.61e6, "S2R+ cell number, rep 1": 1.35e6, "S2R+ cell number, rep 2": 1.47e6}

2 entries from above in another layout:
target,dsRNA,"Kc cell number, rep 1","Kc cell number, rep 2","S2R+ cell number, rep 1","S2R+ cell number, rep 2"
CG31100,DRSC14453,1.49e6,1.53e6,1.40e6,1.47e6
CG31100,DRSC14455,1.56e6,1.61e6,1.35e6,1.47e6

Continued:
{"target": "Mlh1", "dsRNA": "DRSC07473", "Kc cell number, rep 1": 1.35e6, "Kc cell number, rep 2": 1.43e6, "S2R+ cell number, rep 1": 1.11e6, "S2R+ cell number, rep 2": 1.19e6}
{"target": "CG11927", "dsRNA": "DRSC00337", "Kc cell number, rep 1": 1.21e6, "Kc cell number, rep 2": 1.30e6, "S2R+ cell number, rep 1": 5.73e5, "S2R+ cell number, rep 2": 7.53e5}
{"target": "CG12983", "dsRNA": "DRSC11692", "Kc cell number, rep 1": 1.34e6, "Kc cell number, rep 2": 1.51e6, "S2R+ cell number, rep 1": 1.29e6, "S2R+ cell number, rep 2": 1.41e6}
{"target": "CG32813", "dsRNA": "DRSC17948", "Kc cell number, rep 1": 1.49e6, "Kc cell number, rep 2": 1.56e6, "S2R+ cell number, rep 1": 9.87e5, "S2R+ cell number, rep 2": 1.17e6}
{"target": "RabX5", "dsRNA": "DRSC08608", "Kc cell number, rep 1": 1.62e6, "Kc cell number, rep 2": 1.54e6, "S2R+ cell number, rep 1": 1.07e6, "S2R+ cell number, rep 2": 1.38e6}
